# In publication PMC4869175, “Evidence that phytochrome functions as a protein kinase in plant light signalling” (Nature Communications, 2016):
# No constants are given. Whether binding was seen depends on the method and setting. Some entries that bind do so weakly or less than the wild type. Where a sequence is shown, tags or fusion partners need not be part of it.
# T1: GST/strep-fused Arabidopsis PIF1 (Arabidopsis) (UniProt Q8GZM7)
# T1 sequence: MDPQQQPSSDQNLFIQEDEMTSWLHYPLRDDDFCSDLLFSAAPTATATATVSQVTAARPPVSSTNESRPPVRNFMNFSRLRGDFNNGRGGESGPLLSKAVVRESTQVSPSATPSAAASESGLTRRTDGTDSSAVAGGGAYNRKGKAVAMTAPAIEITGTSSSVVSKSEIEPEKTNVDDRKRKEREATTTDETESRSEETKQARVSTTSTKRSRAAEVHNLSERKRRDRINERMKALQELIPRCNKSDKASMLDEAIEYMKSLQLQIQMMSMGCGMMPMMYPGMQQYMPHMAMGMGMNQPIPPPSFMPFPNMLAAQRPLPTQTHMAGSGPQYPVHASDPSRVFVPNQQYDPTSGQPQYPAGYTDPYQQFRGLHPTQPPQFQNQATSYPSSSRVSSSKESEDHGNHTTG
# T2: GST/strep-fused PIF7 (UniProt Q570R7)
# T2 sequence: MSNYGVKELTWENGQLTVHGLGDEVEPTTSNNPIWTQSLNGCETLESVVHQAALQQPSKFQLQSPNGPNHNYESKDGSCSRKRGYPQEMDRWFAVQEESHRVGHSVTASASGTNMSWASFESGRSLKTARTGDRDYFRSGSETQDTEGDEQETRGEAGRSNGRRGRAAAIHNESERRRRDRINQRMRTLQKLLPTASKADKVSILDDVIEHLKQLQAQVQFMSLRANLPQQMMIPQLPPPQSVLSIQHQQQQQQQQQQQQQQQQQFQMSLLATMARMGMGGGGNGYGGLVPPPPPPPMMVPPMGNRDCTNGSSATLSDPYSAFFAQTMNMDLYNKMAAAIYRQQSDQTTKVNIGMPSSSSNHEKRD
# B1: Avena sativa phytochrome A, full-length wild type (natural protein, UniProt P06593 1-1129, looked up)
# chain: MSSSRPASSSSSRNRQSSQARVLAQTTLDAELNAEYEESGDSFDYSKLVEAQRDGPPVQQGRSEKVIAYLQHIQKGKLIQTFGCLLALDEKSFNVIAFSENAPEMLTTVSHAVPSVDDPPRLGIGTNVRSLFSDQGATALHKALGFADVSLLNPILVQCKTSGKPFYAIVHRATGCLVVDFEPVKPTEFPATAAGALQSYKLAAKAISKIQSLPGGSMEVLCNTVVKEVFDLTGYDRVMAYKFHEDDHGEVFSEITKPGLEPYLGLHYPATDIPQAARLLFMKNKVRMICDCRARSIKVIEAEALPFDISLCGSALRAPHSCHLQYMENMNSIASLVMAVVVNENEEDDEAESEQPAQQQKKKKLWGLLVCHHESPRYVPFPLRYACEFLAQVFAVHVNREFELEKQLREKNILKMQTMLSDMLFREASPLTIVSGTPNIMDLVKCDGAALLYGGKVWRLRNAPTESQIHDIAFWLSDVHRDSTGLSTDSLHDAGYPGAAALGDMICGMAVAKINSKDILFWFRSHTAAEIRWGGAKNDPSDMDDSRRMHPRLSFKAFLEVVKMKSLPWSDYEMDAIHSLQLILRGTLNDASKPKREASLDNQIGDLKLDGLAELQAVTSEMVRLMETATVPILAVDGNGLVNGWNQKAAELTGLRVDDAIGRHILTLVEDSSVPVVQRMLYLALQGKEEKEVRFEVKTHGPKRDDGPVILVVNACASRDLHDHVVGVCFVAQDMTVHKLVMDKFTRVEGDYKAIIHNPNPLIPPIFGADEFGWCSEWNAAMTKLTGWNRDEVLDKMLLGEVFDSSNASCPLKNRDAFVSLCVLINSALAGEETEKAPFGFFDRSGKYIECLLSANRKENEGGLITGVFCFIHVASHELQHALQVQQASEQTSLKRLKAFSYMRHAINNPLSGMLYSRKALKNTDLNEEQMKQIHVGDNCHHQINKILADLDQDSITEKSSCLDLEMAEFLLQDVVVAAVSQVLITCQGKGIRISCNLPERFMKQSVYGDGVRLQQILSDFLFISVKFSPVGGSVEISSKLTKNSIGENLHLIDLELRIKHQGLGVPAELMAQMFEEDNKEQSEEGLSLLVSRNLLRLMNGDVRHLREAGVSTFIITAELASAPTAMGQ
# modifications: phycocyanobilin chromophore assembled (chromophore-binding site C322)
# notes: Avena sativa (oat) phytochrome A, full-length gene AsPHYA; 1129 residues by the printed construct limits (66-1129aa); Used as Pr (far-red irradiated) and Pfr (red irradiated) forms; also called AsphyA; FL-AsphyA; source: phycocyanobilin added in vitro
# Key:
# [1] = target: T1, GST/strep-fused Arabidopsis PIF1 (Arabidopsis); assay: pull-down; GST/strep-fused interacting protein (1.0 μg) held on glutathione resin, phytochrome (1.0 μg) in solution, Pr and Pfr forms both tested; 60 min at 4 °C in pull-down buffer (100 mM Tris-HCl pH 7.8, 1 mM EDTA, 150 mM NaCl, 100 μg/ml BSA); western blot with oat22 and anti-GST; both purified
# GST/strep-fused PIF7 = target: T2, GST/strep-fused PIF7; assay: as above
binder,measurement,setting,value
B1,binding,[1],binds
same,binding,GST/strep-fused PIF7,binds weakly
